# From the supplement of paper PMC12067093, “Discovery and optimisation of a covalent ligand for TRIM25 and its application to targeted protein ubiquitination” (Chemical Science, 2025)
# Chains of the proteins cited; added tags and fusions are not shown. Lines headed by an entry give the natural chain unless they say otherwise; changes in a name come on top.
# UniProt P49916: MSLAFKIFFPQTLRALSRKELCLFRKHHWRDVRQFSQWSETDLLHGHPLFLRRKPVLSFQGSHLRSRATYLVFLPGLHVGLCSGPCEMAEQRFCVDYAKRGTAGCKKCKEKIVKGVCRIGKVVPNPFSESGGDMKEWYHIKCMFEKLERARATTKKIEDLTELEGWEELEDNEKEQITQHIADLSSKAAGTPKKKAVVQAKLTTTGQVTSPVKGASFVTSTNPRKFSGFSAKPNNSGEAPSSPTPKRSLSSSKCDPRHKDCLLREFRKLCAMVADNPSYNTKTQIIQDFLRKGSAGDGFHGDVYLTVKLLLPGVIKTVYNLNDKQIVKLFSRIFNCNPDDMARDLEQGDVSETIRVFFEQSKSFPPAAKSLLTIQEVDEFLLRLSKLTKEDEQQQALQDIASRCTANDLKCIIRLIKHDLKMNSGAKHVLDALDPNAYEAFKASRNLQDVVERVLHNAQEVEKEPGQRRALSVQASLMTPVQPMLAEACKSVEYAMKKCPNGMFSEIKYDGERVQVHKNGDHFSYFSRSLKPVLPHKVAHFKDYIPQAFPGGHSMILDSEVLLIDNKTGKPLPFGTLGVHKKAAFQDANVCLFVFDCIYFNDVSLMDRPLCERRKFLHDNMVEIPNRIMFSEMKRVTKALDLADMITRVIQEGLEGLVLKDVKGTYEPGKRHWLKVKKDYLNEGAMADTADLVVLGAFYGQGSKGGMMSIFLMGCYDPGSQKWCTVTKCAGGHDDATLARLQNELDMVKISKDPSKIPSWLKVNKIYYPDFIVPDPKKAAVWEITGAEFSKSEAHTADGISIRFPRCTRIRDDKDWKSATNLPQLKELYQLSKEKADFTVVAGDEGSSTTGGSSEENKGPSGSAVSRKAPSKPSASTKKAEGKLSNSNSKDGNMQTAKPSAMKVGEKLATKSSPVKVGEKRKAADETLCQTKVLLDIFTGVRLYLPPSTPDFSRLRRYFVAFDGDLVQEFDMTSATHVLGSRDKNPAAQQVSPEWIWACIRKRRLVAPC
# UniProt O95202: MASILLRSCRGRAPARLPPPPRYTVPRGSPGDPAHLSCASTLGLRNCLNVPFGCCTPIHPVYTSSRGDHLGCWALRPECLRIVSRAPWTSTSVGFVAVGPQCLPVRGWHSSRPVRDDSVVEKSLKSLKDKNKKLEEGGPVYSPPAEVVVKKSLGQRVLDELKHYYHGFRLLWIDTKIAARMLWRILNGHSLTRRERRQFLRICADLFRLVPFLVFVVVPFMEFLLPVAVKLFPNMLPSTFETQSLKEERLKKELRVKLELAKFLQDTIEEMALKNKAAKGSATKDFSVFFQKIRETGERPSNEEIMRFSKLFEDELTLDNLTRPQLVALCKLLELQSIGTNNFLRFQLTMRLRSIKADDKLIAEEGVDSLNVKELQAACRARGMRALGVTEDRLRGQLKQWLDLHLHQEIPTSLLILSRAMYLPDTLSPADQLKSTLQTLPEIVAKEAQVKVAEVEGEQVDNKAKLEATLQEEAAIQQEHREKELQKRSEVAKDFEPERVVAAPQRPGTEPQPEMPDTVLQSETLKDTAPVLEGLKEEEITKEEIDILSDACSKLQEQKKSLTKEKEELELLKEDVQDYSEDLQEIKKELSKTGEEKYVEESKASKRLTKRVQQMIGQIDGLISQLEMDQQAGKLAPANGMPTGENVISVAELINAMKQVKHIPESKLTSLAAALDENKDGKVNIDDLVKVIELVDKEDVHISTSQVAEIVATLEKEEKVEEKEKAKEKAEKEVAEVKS
# UniProt Q8N1G4: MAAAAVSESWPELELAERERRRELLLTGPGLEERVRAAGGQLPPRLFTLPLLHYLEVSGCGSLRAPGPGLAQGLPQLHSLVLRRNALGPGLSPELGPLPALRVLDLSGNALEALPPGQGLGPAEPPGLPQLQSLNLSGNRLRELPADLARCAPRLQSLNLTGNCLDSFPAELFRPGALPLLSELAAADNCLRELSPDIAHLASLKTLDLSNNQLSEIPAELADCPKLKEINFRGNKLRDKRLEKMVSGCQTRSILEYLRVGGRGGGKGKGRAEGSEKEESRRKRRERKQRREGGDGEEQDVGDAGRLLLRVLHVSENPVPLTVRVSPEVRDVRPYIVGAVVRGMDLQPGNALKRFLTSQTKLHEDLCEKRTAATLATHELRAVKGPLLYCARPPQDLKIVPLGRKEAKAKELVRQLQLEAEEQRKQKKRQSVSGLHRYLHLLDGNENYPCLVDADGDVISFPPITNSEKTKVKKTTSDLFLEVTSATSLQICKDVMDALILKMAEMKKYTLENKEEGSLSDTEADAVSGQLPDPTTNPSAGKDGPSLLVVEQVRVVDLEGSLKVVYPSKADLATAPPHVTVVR
# UniProt P09960: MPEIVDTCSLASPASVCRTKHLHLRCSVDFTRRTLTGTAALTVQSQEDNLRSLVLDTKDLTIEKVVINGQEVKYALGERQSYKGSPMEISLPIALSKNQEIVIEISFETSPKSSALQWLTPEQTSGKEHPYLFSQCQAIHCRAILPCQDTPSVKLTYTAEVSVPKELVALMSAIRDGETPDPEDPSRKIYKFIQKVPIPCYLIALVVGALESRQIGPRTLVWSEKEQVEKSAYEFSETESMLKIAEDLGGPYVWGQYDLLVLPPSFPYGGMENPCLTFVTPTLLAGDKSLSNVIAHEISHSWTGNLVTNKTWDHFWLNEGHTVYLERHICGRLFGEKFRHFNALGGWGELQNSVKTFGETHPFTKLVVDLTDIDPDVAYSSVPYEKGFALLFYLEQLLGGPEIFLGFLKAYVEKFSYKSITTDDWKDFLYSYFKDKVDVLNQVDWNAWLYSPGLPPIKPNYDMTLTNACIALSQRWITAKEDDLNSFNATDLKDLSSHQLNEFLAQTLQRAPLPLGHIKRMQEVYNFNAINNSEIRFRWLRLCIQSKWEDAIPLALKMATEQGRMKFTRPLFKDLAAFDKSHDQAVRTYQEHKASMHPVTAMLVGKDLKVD
# UniProt O75427: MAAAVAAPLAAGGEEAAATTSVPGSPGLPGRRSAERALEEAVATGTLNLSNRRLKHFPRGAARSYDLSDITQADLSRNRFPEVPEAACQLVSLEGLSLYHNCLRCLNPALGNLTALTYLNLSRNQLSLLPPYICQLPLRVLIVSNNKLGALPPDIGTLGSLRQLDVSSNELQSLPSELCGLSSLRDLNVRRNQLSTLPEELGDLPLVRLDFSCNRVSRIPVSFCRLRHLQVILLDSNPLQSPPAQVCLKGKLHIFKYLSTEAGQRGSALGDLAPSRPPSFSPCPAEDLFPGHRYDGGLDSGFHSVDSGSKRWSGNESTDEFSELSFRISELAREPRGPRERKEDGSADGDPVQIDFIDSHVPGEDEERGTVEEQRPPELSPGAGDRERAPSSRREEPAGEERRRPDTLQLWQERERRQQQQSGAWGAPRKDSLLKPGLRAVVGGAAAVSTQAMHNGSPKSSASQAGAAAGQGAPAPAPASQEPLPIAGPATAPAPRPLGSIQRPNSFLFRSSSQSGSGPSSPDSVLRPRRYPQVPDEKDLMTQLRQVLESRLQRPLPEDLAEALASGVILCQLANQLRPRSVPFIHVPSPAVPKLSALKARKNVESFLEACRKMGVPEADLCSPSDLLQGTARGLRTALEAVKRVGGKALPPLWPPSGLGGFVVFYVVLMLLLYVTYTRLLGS
# UniProt Q96II8: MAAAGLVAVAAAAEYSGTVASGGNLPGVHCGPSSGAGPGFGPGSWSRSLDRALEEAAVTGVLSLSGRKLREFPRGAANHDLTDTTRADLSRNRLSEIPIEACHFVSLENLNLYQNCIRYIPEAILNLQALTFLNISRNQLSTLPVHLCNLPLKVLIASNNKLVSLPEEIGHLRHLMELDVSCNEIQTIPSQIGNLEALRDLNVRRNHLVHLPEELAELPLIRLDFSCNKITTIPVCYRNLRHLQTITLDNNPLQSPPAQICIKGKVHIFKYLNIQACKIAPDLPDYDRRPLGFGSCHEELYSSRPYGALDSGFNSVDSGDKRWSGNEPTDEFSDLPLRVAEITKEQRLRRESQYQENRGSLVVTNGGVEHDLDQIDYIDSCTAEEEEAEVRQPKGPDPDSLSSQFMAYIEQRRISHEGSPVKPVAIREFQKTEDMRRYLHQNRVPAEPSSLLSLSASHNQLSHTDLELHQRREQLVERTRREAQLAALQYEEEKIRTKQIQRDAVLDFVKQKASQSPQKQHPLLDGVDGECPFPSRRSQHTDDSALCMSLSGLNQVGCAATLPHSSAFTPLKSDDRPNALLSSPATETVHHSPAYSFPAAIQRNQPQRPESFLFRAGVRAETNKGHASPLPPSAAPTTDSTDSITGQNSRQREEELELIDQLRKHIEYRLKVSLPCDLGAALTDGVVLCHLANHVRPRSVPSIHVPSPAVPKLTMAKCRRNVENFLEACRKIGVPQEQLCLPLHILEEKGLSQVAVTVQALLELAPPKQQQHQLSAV
# UniProt Q7L5N7: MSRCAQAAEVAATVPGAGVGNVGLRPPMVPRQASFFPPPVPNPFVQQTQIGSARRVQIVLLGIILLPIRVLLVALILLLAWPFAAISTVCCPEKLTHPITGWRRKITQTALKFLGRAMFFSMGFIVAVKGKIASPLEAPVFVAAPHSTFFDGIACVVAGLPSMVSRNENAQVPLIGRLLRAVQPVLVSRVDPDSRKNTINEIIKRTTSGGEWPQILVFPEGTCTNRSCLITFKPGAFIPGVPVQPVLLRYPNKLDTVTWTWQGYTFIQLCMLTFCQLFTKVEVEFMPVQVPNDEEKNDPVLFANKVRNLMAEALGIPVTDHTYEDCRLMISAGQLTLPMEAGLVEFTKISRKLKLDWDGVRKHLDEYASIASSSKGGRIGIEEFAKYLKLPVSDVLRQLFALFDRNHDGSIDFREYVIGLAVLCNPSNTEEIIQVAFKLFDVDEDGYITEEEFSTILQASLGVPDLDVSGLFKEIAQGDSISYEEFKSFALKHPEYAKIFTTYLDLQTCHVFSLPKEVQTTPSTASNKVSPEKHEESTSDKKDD
# UniProt Q5TKA1: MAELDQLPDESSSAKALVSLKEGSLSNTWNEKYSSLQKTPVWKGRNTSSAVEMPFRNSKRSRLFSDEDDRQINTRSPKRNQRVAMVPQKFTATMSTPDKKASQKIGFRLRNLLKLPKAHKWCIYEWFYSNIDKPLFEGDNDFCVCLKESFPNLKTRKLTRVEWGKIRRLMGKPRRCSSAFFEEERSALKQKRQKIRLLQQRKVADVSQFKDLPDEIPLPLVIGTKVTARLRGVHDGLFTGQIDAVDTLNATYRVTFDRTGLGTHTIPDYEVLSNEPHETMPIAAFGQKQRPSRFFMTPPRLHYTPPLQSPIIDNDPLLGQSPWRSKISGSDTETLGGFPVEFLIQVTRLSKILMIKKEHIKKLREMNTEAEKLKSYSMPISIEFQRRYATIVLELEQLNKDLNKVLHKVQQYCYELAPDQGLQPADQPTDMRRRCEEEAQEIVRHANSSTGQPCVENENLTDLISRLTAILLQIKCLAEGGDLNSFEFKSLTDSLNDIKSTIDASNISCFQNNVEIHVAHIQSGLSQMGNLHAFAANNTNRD
# UniProt Q9H9A6: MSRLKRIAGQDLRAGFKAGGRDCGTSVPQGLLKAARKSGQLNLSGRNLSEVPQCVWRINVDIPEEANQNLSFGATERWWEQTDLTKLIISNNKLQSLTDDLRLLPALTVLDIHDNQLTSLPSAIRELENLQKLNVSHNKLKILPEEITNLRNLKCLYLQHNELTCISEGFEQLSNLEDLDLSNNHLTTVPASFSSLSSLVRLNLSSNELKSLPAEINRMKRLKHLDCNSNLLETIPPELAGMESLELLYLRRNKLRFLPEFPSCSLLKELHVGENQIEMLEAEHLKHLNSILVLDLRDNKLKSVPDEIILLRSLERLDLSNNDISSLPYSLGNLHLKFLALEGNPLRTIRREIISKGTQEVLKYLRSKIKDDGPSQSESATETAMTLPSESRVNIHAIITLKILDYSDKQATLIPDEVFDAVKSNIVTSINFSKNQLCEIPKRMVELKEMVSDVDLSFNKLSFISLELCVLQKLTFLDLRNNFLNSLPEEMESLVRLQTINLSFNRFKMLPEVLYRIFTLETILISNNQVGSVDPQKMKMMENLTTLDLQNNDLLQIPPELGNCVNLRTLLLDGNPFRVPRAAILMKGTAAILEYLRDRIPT
# UniProt O60711: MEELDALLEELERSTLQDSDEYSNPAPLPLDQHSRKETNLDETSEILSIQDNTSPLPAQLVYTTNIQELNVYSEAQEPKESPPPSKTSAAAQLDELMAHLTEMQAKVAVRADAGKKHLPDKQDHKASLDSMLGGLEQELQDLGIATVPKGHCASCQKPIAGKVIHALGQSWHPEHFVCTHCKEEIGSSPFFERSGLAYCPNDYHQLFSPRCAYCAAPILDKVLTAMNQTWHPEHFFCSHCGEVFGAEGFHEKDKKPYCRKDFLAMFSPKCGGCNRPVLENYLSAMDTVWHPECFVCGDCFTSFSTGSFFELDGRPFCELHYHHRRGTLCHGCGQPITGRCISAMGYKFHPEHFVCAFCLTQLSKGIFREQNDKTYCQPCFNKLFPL
# Some of the results follow.
# Compound: Cc1cc(ccc1-c1ccccc1)C(=O)N1CCCN(CC1)C(=O)CCl [compound 10]
# Assay: probe-labelled cysteine peptide fold change vs DMSO (competition) (log2 fold change); higher = less target engagement (more negative = stronger competition)
# Details: THP-1, incubation time: 4 h
# 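Further: competitive profiling in live THP-1 cells: cysteine peptides tagged with an iodoacetamide desthiobiotin (IA-DTB) probe, intensity after compound treatment relative to DMSO-treated cells.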
Target,probe-labelled cysteine peptide fold change (10 µM),probe-labelled cysteine peptide fold change (50 µM)
LRBA_P50851_2740_TLEGPENCLKPK (UniProt P50851),-0.0198,-0.0803
LRCH1_Q9Y2L9_197_QLMELDVSCNEITALPQQIGQLK (UniProt Q9Y2L9),-0.00665,-0.206
LIG3_P49916_499_KCPNGMFSEIK (UniProt P49916),-0.186,-0.351
LRPPRC_P42704_208_LIASYCNVGDIEGASK (UniProt P42704),0.0733,0.194
LPCAT4_Q643R3_206_WPQVLFFPEGTCSNKK (UniProt Q643R3),-0.0653,-0.0994
LETM1_O95202_379_ELQAACR (UniProt O95202),0.149,0.0896
LRRC47_Q8N1G4_390_GPLLYCARPPQDLK (UniProt Q8N1G4),-0.0714,-0.133
LTA4H_P09960_136_EHPYLFSQCQAIHCR (UniProt P09960),-0.0381,-0.0993
LGALSL_Q3ZCW2_41_LIVPFCGHIK (UniProt Q3ZCW2),-0.185,-0.331
LRCH4_O75427_571_LQRPLPEDLAEALASGVILCQLANQLRPR (UniProt O75427),0.176,-0.0515
LRRFIP2_Q9Y608_435_HMCSVLQHK (UniProt Q9Y608),0.0226,-0.0546
LIMS1_P48059_10_ANALASATCER (UniProt P48059),-0.159,0.0274
LSS_P48449_410_MQGTNGSQIWDTAFAIQALLEAGGHHRPEFSSCLQK (UniProt P48449),0.182,0.215
LGALS1_P09382_3+17_ACGLVASNLNLKPGECLR (UniProt P09382),-0.0869,-0.309
LLGL1_Q15334_1059_NLAEDEAHACAILIK (UniProt Q15334),-0.45,-0.377
LRRC47_Q8N1G4_249_MVSGCQTR (UniProt Q8N1G4),-0.251,-0.184
LILRB1_Q8NHL6_49_CQGGQETQEYR (UniProt Q8NHL6),-0.0272,0.248
LSS_P48449_700_SCAISYTSYR (UniProt P48449),-0.0343,-0.0793
LRCH3_Q96II8_740_IGVPQEQLCLPLHILEEK (UniProt Q96II8),-0.351,-0.235

Target,probe-labelled cysteine peptide fold change (10 µM),probe-labelled cysteine peptide fold change (50 µM)
LRPPRC_P42704_848_GDLSTALEVAIDCYEK (UniProt P42704),0.146,0.228
LMNB1_P20700_110_CKAEHDQLLLNYAK (UniProt P20700),0.0414,-0.47
LTN1_O94822_1131_ESFFPLTEGNLHTIQSLCPFLSK (UniProt O94822),-0.093,-0.225
LGALS3BP_Q08380_561_STSSFPCPAGHFNGFR (UniProt Q08380),-0.203,-0.0213
LPCAT2_Q7L5N7_223_TTSGGEWPQILVFPEGTCTNR (UniProt Q7L5N7),-0.177,-0.195
LIG3_P49916_336_IFNCNPDDMAR (UniProt P49916),-0.00595,0.141
LIN9_Q5TKA1_435_CEEEAQEIVR (UniProt Q5TKA1),0.251,0.243
LIMK1_P53667_84_YGESCHGCSEQITK (UniProt P53667),0.0187,-0.262
LMNA_P02545_591_TVLCGTCGQPADK (UniProt P02545),-0.159,-0.174
LRRC40_Q9H9A6_227_HLDCNSNLLETIPPELAGMESLELLYLRR (UniProt Q9H9A6),-0.229,-0.459
LPXN_O60711_152+155_GHCASCQKPIAGK (UniProt O60711),-0.235,-0.711
LPCAT2_Q7L5N7_326_NLMAEALGIPVTDHTYEDCR (UniProt Q7L5N7),-0.16,-0.0104
LTA4H_P09960_8_PEIVDTCSLASPASVCR (UniProt P09960),-0.129,-0.324
LSS_P48449_616_ACDFLLSR (UniProt P48449),-0.236,-0.0146
LSM4_Q9Y4Z0_45_EVICTSR (UniProt Q9Y4Z0),-0.0884,-0.2
LMAN1_P49257_190_NNPAIVIIGNNGQIHYDHQNDGASQALASCQR (UniProt P49257),-0.101,0.195
LTA4H_P09960_136+141_EHPYLFSQCQAIHCR (UniProt P09960),0.0569,-0.0361
LMO7_Q8WWI1_228_DSGYGDIWCPER (UniProt Q8WWI1),-0.221,-0.529
LRCH4_O75427_102_NRFPEVPEAACQLVSLEGLSLYHNCLR (UniProt O75427),0.162,-0.158
